PubChem BioAssay AID624297 (National Center for Advancing Translational Sciences (NCATS), 2012)
Among all 340,000 compounds or so, about 6,200 (1.8%) were called active. The inconclusive results got no clear call from the source; some entries with a clear call stand among them for comparison. Calls come from the whole dose curve; as a rule, active = well fitted activation curve with a large enough effect; inconclusive = small, poorly fitted or top-dose-only effect; inactive = no such curve, though single readings can be large or run the other way. Potencies of inconclusive entries are doubtful fits and often do not repeat.

Assay: A quantitative high throughput screen for small molecules that induce DNA re-replication in SW480 colon adenocarcinoma cells. For re-replication activation: % of control where 0% means no effect. Note: nearly all actives have a fitted effect of over 55% in size.
Conditions: Hoechst DNA content imaging, 48 h; re-replication activation: at 46.1 µM (top of the series) unless noted
Method in brief: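 First, 250 cells per well were seeded. Next, compound or vehicle (23 nL) was pinned in, plates sat 48 hr at 37 C. Finally Hoechst was added for 40 min before fluorescence scanning.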
Potency is the fitted concentration of half-maximal effect.

| Structure (SMILES) | Potency | re-replication activation |
| --- | --- | --- |
| COc1ccc(C(=O)/C=C2/c3ccccc3CC(C)(C)N2C)cc1 | inconclusive: 18.4 µM [activator, single point] |  |
| CCC(=O)NC(c1ccc(C)cc1)c1cc([N+](=O)[O-])c2cccnc2c1O (centres undefined) | inconclusive: 25.9 µM [activator, single point] |  |
| Cc1cc(C)c(O)c(-c2cc(C(=O)Nc3cccnc3)[nH]n2)c1 | inconclusive: 14.6 µM [activator, partial curve, poor fit] |  |
| CSc1nnc(N2C(=O)C(O)=C(C(=O)c3ccco3)C2c2ccccc2)s1 (centres undefined) | inconclusive: 6.51 µM [activator, full curve, poor fit] |  |
| Cc1cccc(NC(=O)CSc2nc3[nH]ncc3c(=O)[nH]2)c1C | inconclusive: 0.092 µM [activator, full curve, poor fit] |  |
| OCCCNc1cc(-c2ccccc2)nc2cc(-c3ccc(F)cc3)nn12 | inconclusive: 29.1 µM [activator, single point] |  |
| CCN1C/C(=C\c2cc(OC)c(OC)c(OC)c2)C2=NN(c3ccccc3)C(c3cc(OC)c(OC)c(OC)c3)C2C1 (centres undefined) | inconclusive: 5.8 µM [activator, partial curve] |  |
| O=C(C[C@@H]1NS(=O)(=O)OC2CCCCC21)c1ccccc1 (some centres undefined) | inconclusive: 4.61 µM [activator, partial curve, poor fit] |  |
| Cc1sc(N2CCN(S(=O)(=O)c3ccc4c(c3)NC(=O)CO4)CC2)nc1-c1ccccc1 | inconclusive: 18.4 µM [activator, single point] |  |
| COC(=O)[C@]1(C)N[C@H](CN(C)C(=O)c2ccccc2)[C@@H]2C(=O)N(C)C(=O)[C@@H]21 |  | inactive: -37.6% |
| CCC(CC)C(=O)c1c[nH]c(C(=O)NCCc2ccccn2)c1 |  | inactive: 3.83% |
| COc1cc(-c2nnc(SCC3(c4ccc(Br)cc4)OCCO3)o2)cc(OC)c1OC | inconclusive: 23.1 µM [activator, single point] |  |
| O=C(/C=C/c1ccc2c(c1)OCO2)c1ccc(F)cc1 | inconclusive: 29.1 µM [activator, single point] |  |
| CC(=O)N1CC(=O)N=C1SCC(=O)Nc1nc(C)c(-c2ccccc2)s1 |  | inactive: 2.28% |
| CCCCN1C(=N)N([C@@H](CCC)CN2CCC[C@H]2CN2C(N)=NC[C@H]2CC(C)C)C[C@H]1Cc1ccccc1 |  | inactive: -79.3% |
| COc1ccc(-c2cc(C(F)F)n3ncc(C(=O)N4CCSCC4)c3n2)cc1 | active: 5.17 µM |  |
| O=C(COC(=O)c1c2ccccc2cc2ccccc12)NCC(F)(F)F | inconclusive: 23.1 µM [activator, single point] |  |
| Cc1cc(C)cc(C(=O)NCC(=O)N2CCN(c3cccc(Cl)c3)CC2)c1 |  | inactive: 2.69% |
| O=C(NC1CCN(Cc2ccccc2)CC1)c1ccc(Cn2c(=S)[nH]c3ccc(N4CCOCC4)cc3c2=O)cc1 | inconclusive: 25.9 µM [activator, single point] |  |
| CC(C)Oc1ccc(S(=O)(=O)N2CCOCC2)cc1NC(=O)c1cc([N+](=O)[O-])ccc1N1CCOCC1 | inconclusive: 29.1 µM [activator, partial curve, poor fit] |  |
| CCN(c1ccccc1)S(=O)(=O)c1ccc(C(=O)N(CCCN(C)C)c2nc3cc4c(cc3s2)OCO4)cc1 | inconclusive: 29.1 µM [activator, single point] |  |
| O=C(CCS(=O)(=O)c1ccccc1)Nc1ncc([N+](=O)[O-])s1 | active: 7.31 µM |  |

| Structure (SMILES) | Potency | re-replication activation |
| --- | --- | --- |
| COc1cc(/C=C/C(C)=NNc2ccccc2)ccc1O | inconclusive: 29.1 µM [activator, single point] |  |
| COc1coc(/C=C/C(=O)O)cc1=O | active: 1.46 µM |  |
| CCN(CC(=O)Nc1ccccc1OC)C(=O)c1cc(S(=O)(=O)N2CCCCCC2)ccc1OC |  | inactive: -5.87% |
| Cc1ccc(OC(=O)COc2ccccc2)c(-n2nc3ccccc3n2)c1 | inconclusive: 6.31 µM [activator, single point] |  |
| CCCCN(C)CCNC(=S)Nc1ccc2nc(N3CCN(CC)CC3)cc(C)c2c1 | inconclusive: 29.1 µM [activator, single point] |  |
| CC1SC(c2ccc(Cl)cc2Cl)NC1=O (centres undefined) | inconclusive: 1.16 µM [activator, full curve, poor fit] |  |
| Cc1ccc2c(c1)c1c3n2CCN(C(=O)CCl)C3CCC1 (centres undefined) | inconclusive: 23.1 µM [activator, single point] |  |
| Cc1cccc(NC(c2ccc(O)cc2)c2ccc3ccc(C)nc3c2O)n1 (centres undefined) | inconclusive: 14.6 µM [activator, partial curve, poor fit] |  |
| Cc1ccc(-c2nn(-c3cccc(F)c3)cc2CNCCc2ccncc2)o1 | inconclusive: 29.1 µM [activator, single point] |  |
| Cc1ccc(C(=O)c2cc([N+](=O)[O-])ccc2N2CCCCC2)cc1 | active: 0.58 µM |  |
| CCN(CC)c1nc(C(F)(F)F)nc2c1nnn2Cc1ccccc1 |  | inactive: -4.58% |
| CC(OC(=O)c1ccc(S(=O)(=O)N(C)C)cc1)C(=O)Nc1ccc(Cl)cn1 (centres undefined) |  | inactive: -7.2% |
| O=C(C1=C[C@@H](c2coc3ccccc3c2=O)C[C@@H](OCc2ccc(CO)cc2)O1)N1CCN(Cc2ccccc2)CC1 | inconclusive: 4.61 µM [activator, partial curve, poor fit] |  |
| O=C(Cc1cc(=O)oc2cc(O)ccc12)NC(Cc1ccc(Cl)cc1)C(=O)O (centres undefined) |  | inactive: 24.7% |
| CCNC(=O)NS(=O)(=O)c1cnccc1Nc1cccc(Cl)c1 | active: 29.1 µM |  |
| COc1cc(C(C)=O)ccc1OCC(=O)NC(=O)Nc1ccc(C)cc1C | inconclusive: 20.6 µM [activator, single point] |  |
| O=C(Nc1ccccc1)C1CC(=O)N(c2ccc3c4c(cccc24)CC3)C1 (centres undefined) | inconclusive: 20.6 µM [activator, single point] |  |
| COC(=O)C(C(=O)OC)C(C[N+](=O)[O-])c1ccc(OC)cc1 (centres undefined) | inconclusive: 25.9 µM [activator, single point] |  |
| COCC(=O)OC/C(O)=C(\C#N)c1nc2ccccc2[nH]1 | inconclusive: 29.1 µM [activator, single point] |  |
| COC(=O)C1C2CC3c4[nH]c5cc(OC)ccc5c4CCN3CC2CC(OC(=O)CC(C)=O)C1OC (centres undefined) | inconclusive: 29.1 µM [activator, single point] |  |
| CC1CCN(CCCCOc2ccccc2[N+](=O)[O-])CC1 | inconclusive: 29.1 µM [activator, single point] |  |
| COc1cc(C(=S)N2CCOCC2)cc(OC)c1OC(=O)c1ccc(C)cc1 | inconclusive: 0.58 µM [activator, partial curve, poor fit] |  |

A second format for part of the listing above.
Structure (SMILES)	Potency	re-replication activation
CCN(CC)c1nc(C(F)(F)F)nc2c1nnn2Cc1ccccc1		inactive: -4.58%
CC(OC(=O)c1ccc(S(=O)(=O)N(C)C)cc1)C(=O)Nc1ccc(Cl)cn1 (centres undefined)		inactive: -7.2%
O=C(C1=C[C@@H](c2coc3ccccc3c2=O)C[C@@H](OCc2ccc(CO)cc2)O1)N1CCN(Cc2ccccc2)CC1	inconclusive: 4.61 µM [activator, partial curve, poor fit]	
O=C(Cc1cc(=O)oc2cc(O)ccc12)NC(Cc1ccc(Cl)cc1)C(=O)O (centres undefined)		inactive: 24.7%

Additional results follow:

| Structure (SMILES) | Potency | re-replication activation |
| --- | --- | --- |
| N#C/C(=C\c1cccc([N+](=O)[O-])c1)C(=O)NCc1ccc(Cl)cc1 | inconclusive: 29.1 µM [activator, single point] |  |
| CCOC(=O)c1c(NC(=O)C2COc3ccccc3O2)sc2c1CC(C)(C)NC2(C)C (centres undefined) | inconclusive: 18.4 µM [activator, single point] |  |
| O=c1ccn(Cc2ccccc2)c2ccccc12 |  | inactive: -6.69% |
| CCN(CC(=O)NCc1ccc(Cl)cc1)C(=O)c1cc(S(=O)(=O)NCc2ccccc2)ccc1C | inconclusive: 29.1 µM [activator, single point] |  |
| CCCCC[C@H](O)/C=C/C1=C(CCCCCCC(=O)O)C(=O)CC1 | inconclusive: 0.146 µM [activator, single point] |  |
| Cc1ccc(NC(=O)c2ccc3nc[nH]c3c2)cc1C | inconclusive: 29.1 µM [activator, single point] |  |
| CC(=O)N1CCN(C(=O)c2ccc(NS(=O)(=O)c3ccc4c(c3)OCCO4)cc2)CC1 |  | inactive: -2.64% |
| Cn1c(=O)c2[nH]c(Cc3cccc(O)c3)nc2n(C)c1=O | inconclusive: 23.1 µM [activator, single point] |  |
| CCn1c(SCC(=O)Nc2ccc(N3CCOCC3)cc2)nnc1-c1ccco1 |  | inactive: 2.27% |
| COC(=O)c1c(C)[nH]c(C(=O)C(C)OC(=O)c2c(C)noc2C)c1C (centres undefined) |  | inactive: -7.89% |
| CC(Oc1ccc(F)cc1)C(=O)Nc1ccc(N2CCOCC2)cc1N1CCOCC1 (centres undefined) |  | inactive: -27.5% |
| CCOC(=O)C(C(=O)OCC)C(Nc1ccc(Br)cc1)c1ccccc1 (centres undefined) | inconclusive: 29.1 µM [activator, single point] |  |
| O=C(NCCN1CCN(c2ccccc2)CC1)C1CCN(S(=O)(=O)c2cccc3nsnc23)CC1 | inconclusive: 0.316 µM [activator, partial curve, poor fit] |  |
| Nc1c(C(=O)NC2CC2)c2nc3ccccc3nc2n1-c1ccc2c(c1)OCO2 | inconclusive: 4.61 µM [activator, full curve, poor fit] |  |
| C#CCOCCOCCOCCNc1nc(N2CCN(C(=O)[C@H]([C@@H](C)CC)n3cc(CCC(=O)O)nn3)CC2)nc(N2CCN(C(=O)[C@H](CCCCN)n3cc(CC(C)O)nn3)CC2)n1 (some centres undefined) |  | inactive: -8.36% |
| O=C(NCc1cccnc1)/C(=C\c1ccc(-c2cccc(Cl)c2)o1)S(=O)(=O)c1ccccc1 | inconclusive: 29.1 µM [activator, single point] |  |
| Cc1cccc(N2CC(C(=O)Nc3cccc(S(=O)(=O)N4CCCCC4)c3)CC2=O)c1C (centres undefined) |  | inactive: -24.4% |
| Cc1c(Cl)c([N+](=O)[O-])nn1Cc1ccc(C(=O)N/N=C\c2ccccn2)o1 | inconclusive: 20.6 µM [activator, single point] |  |
| CCCc1c(-c2ccc(O)cc2)nn(-c2ccc(O)cc2)c1-c1ccc(O)cc1 |  | inactive: -10.5% |
| CCNS(=O)(=O)c1ccc(-c2ccc(-n3cnnn3)cc2)cc1 | inconclusive: 0.731 µM [activator, partial curve, poor fit] |  |
